The target of assay [1] is T1, HA-VDAC2-WT (pCDNA3) (UniProt P45880).
T1 sequence: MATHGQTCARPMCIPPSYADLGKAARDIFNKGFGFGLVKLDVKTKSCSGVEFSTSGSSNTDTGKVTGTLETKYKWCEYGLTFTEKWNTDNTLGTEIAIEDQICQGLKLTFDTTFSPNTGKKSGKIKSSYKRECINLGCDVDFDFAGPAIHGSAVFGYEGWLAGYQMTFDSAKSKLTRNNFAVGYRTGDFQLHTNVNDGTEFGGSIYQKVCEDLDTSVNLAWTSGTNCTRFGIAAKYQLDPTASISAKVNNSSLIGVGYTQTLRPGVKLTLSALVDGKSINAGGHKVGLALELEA
Briefly: co-IP; HA-IP (anti-HA agarose) from HEK293T cells transfected with the indicated constructs, immunoblot; Figures 3Q, 4H, 4J.

The chains behind the UniProt entries cited, without tags or fusion partners. Where a name states a change or a piece, a line headed by the entry shows the natural chain unless it says otherwise. Residues count along the entry.
UniProt P38646, residues 47-679: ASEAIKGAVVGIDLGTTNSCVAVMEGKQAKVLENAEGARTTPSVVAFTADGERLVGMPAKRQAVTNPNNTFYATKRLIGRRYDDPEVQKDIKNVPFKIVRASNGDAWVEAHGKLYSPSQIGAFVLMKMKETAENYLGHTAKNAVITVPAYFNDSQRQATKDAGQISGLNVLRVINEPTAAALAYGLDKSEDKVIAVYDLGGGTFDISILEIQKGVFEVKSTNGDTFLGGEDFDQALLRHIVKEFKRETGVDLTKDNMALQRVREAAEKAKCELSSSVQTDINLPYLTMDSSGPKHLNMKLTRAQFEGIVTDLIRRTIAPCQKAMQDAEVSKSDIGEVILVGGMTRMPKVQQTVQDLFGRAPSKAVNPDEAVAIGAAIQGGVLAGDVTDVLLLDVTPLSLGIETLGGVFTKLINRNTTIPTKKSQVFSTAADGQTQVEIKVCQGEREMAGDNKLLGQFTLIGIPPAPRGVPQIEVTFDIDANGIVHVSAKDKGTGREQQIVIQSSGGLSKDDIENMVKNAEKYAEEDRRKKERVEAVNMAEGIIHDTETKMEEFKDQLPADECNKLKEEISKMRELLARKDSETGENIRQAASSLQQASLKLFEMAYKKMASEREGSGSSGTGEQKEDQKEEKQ
UniProt Q86WV6: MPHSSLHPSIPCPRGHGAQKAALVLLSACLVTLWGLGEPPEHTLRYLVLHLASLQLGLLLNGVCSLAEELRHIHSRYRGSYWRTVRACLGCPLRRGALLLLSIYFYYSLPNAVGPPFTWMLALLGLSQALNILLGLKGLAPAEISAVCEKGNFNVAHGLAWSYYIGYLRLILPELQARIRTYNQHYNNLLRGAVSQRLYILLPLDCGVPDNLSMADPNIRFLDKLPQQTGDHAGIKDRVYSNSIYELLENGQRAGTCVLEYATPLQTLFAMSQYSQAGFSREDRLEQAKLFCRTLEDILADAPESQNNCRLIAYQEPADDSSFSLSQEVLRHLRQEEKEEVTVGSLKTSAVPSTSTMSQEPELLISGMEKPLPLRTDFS

For assay [2], the target named is GST-GRP75 (CMV-GST-GRP75) (human (hORFeome V5.1 collection)) (UniProt P38646). The experiment in a line: pull-down; GST pull-down (glutathione agarose) from HEK293T cells transfected with the indicated constructs, immunoblot; Figure 4K. On the technique in general: Immunoblotting shows a protein as a band on a membrane.

Results are given in words; binding and its absence hold for the method and conditions named. Binding seen in cells or lysates may run through a third protein. A result given as binding can be weak or reduced; the word gives no strength. For part of these data: Sequences can lack the tags named with a protein.

On to “Flag-STING-C88A (pCDNA3.0) (from UniProt Q86WV6)”, for which the binding result in assay [1] is listed as “binds”. As to “Flag-STING-C88A/C91A (pCDNA3.0) (from UniProt Q86WV6)”, the binding entry in assay [2] was “binds”.

Regarding “Flag-STING-C91A (pCDNA3.0) (from UniProt Q86WV6)”, in assay [1], the binding result is reported as “binds”.

(Values after paper PMC9875608.)
